Measured values: article PMC8683613
These are yes or no findings as the source states them, for the method shown.

Target: pyruvate formate-lyase activating enzyme (PFL-AE) (E. coli) (UniProt P0A9N4)
Assay: SEC; clarified lysate loaded on HiLoad 16/60 Superdex 75 prep grade, anaerobic; 50 mM Tris pH 7.5, 100 mM NaCl, 1 mM DTT

B1: pyruvate formate-lyase activating enzyme (PFL-AE) (enzyme, UniProt P0A9N4 2-246)
chain: SVIGRIHSFESCGTVDGPGIRFITFFQGCLMRCLYCHNRDTWDTHGGKEVTVEDLMKEVVTYRHFMNASGGGVTASGGEAILQAEFVRDWFRACKKEGIHTCLDTNGFVRRYDPVIDELLEVTDLVMLDLKQMNDEIHQNLVGVSNHRTLEFAKYLANKNVKVWIRYVVVPGWSDDDDSAHRLGEFTRDMGNVEKIELLPYHELGKHKWVAMGEEYKLDGVKPPKKETMERVKGILEQYGHKVMF
With B1 the binding was “no binding”.
